Measured values reported in patent US20100256217A1, “ANTIVIRAL INHIBITION OF CASEIN KINASE II” (The Trustees of the University of Pennsylvania, priority 2006, published 2010).
Results are given in words; binding and its absence hold for the method and conditions named. For part of these data: In cells and extracts the contact can be indirect. Some results given as binding are weak or reduced against the parent protein; the word gives no strength.

Chains of the proteins cited; added tags and fusions are not shown. Residues count along the entry.
UniProt P68400: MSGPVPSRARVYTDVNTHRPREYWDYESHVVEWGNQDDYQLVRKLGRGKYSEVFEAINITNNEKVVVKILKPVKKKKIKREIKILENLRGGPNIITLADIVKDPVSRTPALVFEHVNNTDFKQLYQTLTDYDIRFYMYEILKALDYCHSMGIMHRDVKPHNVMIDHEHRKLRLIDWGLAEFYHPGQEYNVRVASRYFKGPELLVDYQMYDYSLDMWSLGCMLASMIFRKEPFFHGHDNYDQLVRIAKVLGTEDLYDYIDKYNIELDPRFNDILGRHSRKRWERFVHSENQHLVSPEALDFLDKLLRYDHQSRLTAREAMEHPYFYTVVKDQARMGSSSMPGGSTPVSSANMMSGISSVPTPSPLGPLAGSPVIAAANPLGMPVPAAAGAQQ
UniProt Q9Q6P4, residues 1-123: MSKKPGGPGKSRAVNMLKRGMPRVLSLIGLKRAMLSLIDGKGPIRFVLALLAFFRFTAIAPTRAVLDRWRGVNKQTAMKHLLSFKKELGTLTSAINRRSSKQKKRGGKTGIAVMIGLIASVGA

Tests used:
[1] = biological target: human CK2α subunit, cloned from HeLa cell cDNA (pcCK2α) (human) (UniProt P68400); experiment: co-immunoprecipitation: 35S-labeled in vitro translated proteins, and 293-T cell lysates with western blot
[2] = biological target: human CK2α subunit, cloned from HeLa cell cDNA (pcCK2α) (human) (UniProt P68400); experiment: co-immunoprecipitation from transfected 293T cells, then western blot
[3] = biological target: human CK2α subunit, cloned from HeLa cell cDNA (pcCK2α) (human) (UniProt P68400); experiment: co-immunoprecipitation from transfected 293T cell lysates with anti-His or anti-CK2α, then western blot; endogenous CK2α was also pulled down
[4] = biological target: human CK2α subunit, cloned from HeLa cell cDNA (pcCK2α) (human) (UniProt P68400); experiment: in vitro binding assay, 35S-labeled in vitro translated proteins, co-immunoprecipitation, autoradiography
[5] = biological target: human CK2α subunit, cloned from HeLa cell cDNA (pcCK2α) (human) (UniProt P68400); experiment: in vitro binding assay and co-immunoprecipitation with western blot (summary in the discussion)
[6] = biological target: recombinant WNV capsid protein with an N-terminal hexa-histidine tag, expressed in E. coli from pQE30 (West Nile virus) (UniProt Q9Q6P4); experiment: SDS-PAGE and anti-His western blot of Ni-NTA purified protein (bands at 14 kD and 33 kD)

Measured: binding

West Nile virus capsid protein with a C-terminal polyhistidine tag, encoded by pcWNV C-His (from UniProt Q9Q6P4 1-123)
not listed: [6]
binds: all other assays above

recombinant WNV capsid protein with an N-terminal hexa-histidine tag, expressed in E. coli from pQE30 (from UniProt Q9Q6P4 1-123)
binds: [6]
